Patent US20130323813, “PEPTIDES FOR THE SPECIFIC BINDING OF RNA TARGETS” (THE UNIVERSITY OF WESTERN AUSTRALIA, published 2013)
Changes are numbered by the printed parent chain. For part of these data: Negatives hold for the conditions tested. Where a protein sequence is shown, tags need not be part of it. For part of these data: Results from cells or extracts need not show a direct contact. For part of these data: The comparison behind a weaker result is the experiment's own reference, which may not be listed here.

Columns and labels:
Assay in all cases: one hybrid
[1] = biological target: T1, PUM1 PUF TR (repeat 6 Thr12/Arg16) (Homo sapiens) (UniProt Q14671); conditions: yeast three-hybrid; protein in cells; protein details: Gal4 activation domain fusion
T1 sequence: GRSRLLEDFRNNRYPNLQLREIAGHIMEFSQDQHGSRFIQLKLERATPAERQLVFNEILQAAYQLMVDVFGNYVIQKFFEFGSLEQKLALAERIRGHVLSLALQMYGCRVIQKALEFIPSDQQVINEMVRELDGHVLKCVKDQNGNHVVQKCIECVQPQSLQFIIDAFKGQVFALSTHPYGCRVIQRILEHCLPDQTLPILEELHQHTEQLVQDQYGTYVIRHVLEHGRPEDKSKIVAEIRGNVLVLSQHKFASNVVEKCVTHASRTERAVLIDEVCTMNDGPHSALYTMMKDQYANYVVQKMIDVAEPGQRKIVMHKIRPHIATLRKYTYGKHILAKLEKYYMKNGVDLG

[2] = biological target: T2, PUM1 PUF AR (repeat 6 Ala12/Arg16) (Homo sapiens) (UniProt Q14671); conditions: yeast three-hybrid; protein in cells; protein details: Gal4 activation domain fusion
T2 sequence: T1 sequence with T218A

[3] = biological target: T3, PUM1 PUF GR (repeat 6 Gly12/Arg16) (Homo sapiens) (UniProt Q14671); conditions: yeast three-hybrid; purified recombinant protein
T3 sequence: T1 sequence with T218G

[4] = biological target: T4, PUM1 PUF GR repeat 5 (Homo sapiens) (UniProt Q14671); conditions: yeast three-hybrid; protein in cells; protein details: Gal4 activation domain fusion
T4 sequence: T1 sequence with C182G, Q186R, T218N, R222Q

[5] = biological target: T5, PUM1 PUF GR repeat 2 (Homo sapiens) (UniProt Q14671); conditions: yeast three-hybrid; protein in cells; protein details: Gal4 activation domain fusion
T5 sequence: T1 sequence with N72G, Q76R, T218N, R222Q

[6] = biological target: T6, PUM1 PUF GR repeat 4 (Homo sapiens) (UniProt Q14671); conditions: yeast three-hybrid; protein in cells; protein details: Gal4 activation domain fusion
T6 sequence: T1 sequence with N146G, Q150R, T218N, R222Q

Measured: binding result

CCGGCUAGCAAUUGUAUAUAUUAAUUUAAUAAAGCAUG [NRE]
no binding: [1] | [2] | [3]
binds more weakly: [4] | [5] | [6]
